Consider one sequence from patent publication US5547861.

Negatives hold for the conditions tested. Where a protein sequence is shown, tags need not be part of it.

This data set addresses T1, HincII restriction endonuclease (UniProt P17743).
T1 sequence (looked up, limits assumed): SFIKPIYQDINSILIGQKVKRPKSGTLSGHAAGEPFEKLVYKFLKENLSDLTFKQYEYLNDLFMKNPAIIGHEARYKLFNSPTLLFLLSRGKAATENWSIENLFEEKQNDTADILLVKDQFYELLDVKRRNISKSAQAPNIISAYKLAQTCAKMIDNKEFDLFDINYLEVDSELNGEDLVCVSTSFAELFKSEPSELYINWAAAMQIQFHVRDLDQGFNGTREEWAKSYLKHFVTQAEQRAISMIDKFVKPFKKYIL
The experiment in a line: enzyme reaction in vitro. The settings on record: single-stranded signal primer not cleaved; no cleavage product without target; purified native protein; protein details: New England Biolabs; label: 5'-32P; single-stranded DNA.

For “GTACGTCTATGTCAACATCCGTATGGTGGATAACGTCTTTCA [HincII-site signal primer, single-stranded 42-mer]”, the “activity on this sequence” value was “not active”.
